Results taken from the supplement of paper PMC7877785.
± gives the uncertainty stated by the source. Many of these values have a large error.

Experiment: self-splicing fitness, log relative to wild type (ln ratio); higher = more splicing; Tetrahymena group I intron in knt gene, E. coli kanamycin selection, DiMSum; sequences stand for … in CUCUCU…GGAGGGAAAAGUUAUCAGGCAUGCACCUGGUAGCUAGUCUUUAAACCAAUAGAUUGCAUCGGUUUAAAAGGCAAGACCGUCAAAUUGCGGGAAAGGGGUCAACAGCCGUUCAGUACCAAGUCUCAGGGGAAACUUUGAGAUGGCCUUGCAAAGGGUAUGGUAAUAAGCUGACGGACAUGGUCCUAACCACGCAGCCAAGUCCUAAGUCAACAGAUCUUCUGUUGAUAUGGAUGCAGUUCACAGACUAAAUGUCGGUCGGGGAAGAUGUAUUCUUCUCAUAAGAUAUAGUCGGACCUCUCCUUAAUGGGAGCUAGCGGAUGAAGUGAUGCAACACUGGAGCCGCUGGGAACUAAUUUGUAUGCGAAAGUAUAUUGAUUAGUUUUGGAGUACUCGUGGUCG
How it was run: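 Pooled colonies went to amplicon sequencing on an Illumina HiSeq 2500 after six replicate transformations. The plates were LB agar with 100 μg/mL carbenicillin, 50 μM IPTG and 0.2% rhamnose, with or without 25 μg/mL kanamycin, incubated overnight at 37°C or 30°C. The E. coli BL21(DE3) library had all eight P1ex-region intron nucleotides randomised, the intron placed in the knt kanamycin-resistance gene on pET-22b(+). DiMSum fitness is the error-weighted combination of replicate fold changes, kanamycin against none, normalised to wild type.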

Sequence	self-splicing fitness (ln) (37 °C)	self-splicing fitness (ln) (30 °C)
AAAGAGCAAUAUUACGAAUG	-2.75 ± 0.54	
GCUGAGCAAUAUUACGGCUU	-1.84 ± 0.52	
CUGGAGCAAUAUUACGCACU	-1.98 ± 0.66	-3.34 ± 0.76
CCGGAGCAAUAUUACGACGG	-3.99 ± 0.51	-4.33 ± 0.51
UUAGAGCAAUAUUACGAGCU	-2.65 ± 0.65	-3.2 ± 0.63
GCAAAGCAAUAUUACGUGUA	-0.701 ± 0.074	-0.807 ± 0.071
GAGUAGCAAUAUUACGAAAA	-2.65 ± 0.62	
AUUCAGCAAUAUUACGUACC	-0.514 ± 0.089	-0.843 ± 0.061
AACGAGCAAUAUUACGUCGA		-4.98 ± 1
ACAGAGCAAUAUUACGGCCC	-1.61 ± 0.59	
GGAUAGCAAUAUUACGUCAU	-0.395 ± 0.12	-2.02 ± 0.11
UGGUAGCAAUAUUACGGAGG	-1.56 ± 0.16	-3.85 ± 0.27
CUCUAGCAAUAUUACGCACC	-1.84 ± 1.1	
CGCAAGCAAUAUUACGUGUC	-2.68 ± 0.16	-2.39 ± 0.12
CGAGAGCAAUAUUACGUCUA	-1.99 ± 0.66	
GCGUAGCAAUAUUACGCCCU	-0.681 ± 1.4	0.121 ± 0.79
UCCCAGCAAUAUUACGUGGG	-2.85 ± 0.16	-3.37 ± 0.1
GUGUAGCAAUAUUACGGGGC	0.694 ± 1.1	
AAGGAGCAAUAUUACGUUAC		-3.11 ± 0.74
UUCGAGCAAUAUUACGCCAU	-1.32 ± 0.57	-4.6 ± 0.72
CCUAAGCAAUAUUACGUCAC		-4.04 ± 1
AUACAGCAAUAUUACGAGAG	-2.1 ± 0.088	-3.39 ± 0.14
ACUGAGCAAUAUUACGAUCC	-0.234 ± 1	-0.827 ± 0.63
UGUAAGCAAUAUUACGGAAU		-4.13 ± 0.78
UCGUAGCAAUAUUACGAUAG	-3.12 ± 0.38	-3.88 ± 1.1
ACGGAGCAAUAUUACGCCGU	-1.98 ± 0.57	-2.89 ± 0.51

2 entries picked at random from the list so far:
Sequence	self-splicing fitness (ln) (37 °C)	self-splicing fitness (ln) (30 °C)
UGUAAGCAAUAUUACGGAAU		-4.13 ± 0.78
AAGGAGCAAUAUUACGUUAC		-3.11 ± 0.74

(further entries)

Sequence	self-splicing fitness (ln) (37 °C)	self-splicing fitness (ln) (30 °C)
GCCCAGCAAUAUUACGACUG	-2.44 ± 0.19	-4.23 ± 0.22
UCAGAGCAAUAUUACGCCGG	-1.74 ± 0.59	
CCCUAGCAAUAUUACGUAAA		-4.48 ± 0.59
CGGUAGCAAUAUUACGAACC		-3.76 ± 1
CUGUAGCAAUAUUACGCCAU	-0.681 ± 1.4	
UUGCAGCAAUAUUACGCGAC	-2.48 ± 1.1	-0.631 ± 1.2
GAGUAGCAAUAUUACGCGGC		-3.47 ± 1
UCCAAGCAAUAUUACGCCCG	-0.954 ± 0.52	
AGUGAGCAAUAUUACGGUAA		-1.77 ± 0.69
GGACAGCAAUAUUACGCCGC		-3.55 ± 0.61
UGACAGCAAUAUUACGGAAA	-1.75 ± 0.14	-2.03 ± 0.12
ACUGAGCAAUAUUACGUCGA	-2.07 ± 0.18	-3.59 ± 0.22
AGUGAGCAAUAUUACGCCUU	-1.45 ± 0.68	-3.27 ± 0.61
GCCGAGCAAUAUUACGCGCG	-2.2 ± 0.51	
UGGGAGCAAUAUUACGGGCU	-2.32 ± 0.64	
CUCUAGCAAUAUUACGACUC	-1.23 ± 0.55	-2.19 ± 0.69
ACAAAGCAAUAUUACGAAAC		-3.91 ± 0.59
CUUAAGCAAUAUUACGUAGC	-3.86 ± 0.59	
GUAUAGCAAUAUUACGUACC	-2.41 ± 0.54	-3.72 ± 0.55
CGCUAGCAAUAUUACGGUUA	-1.82 ± 0.2	-2.22 ± 0.23
AUCUAGCAAUAUUACGGGGC	-2.85 ± 0.74	
GUAUAGCAAUAUUACGGAGC	-2.08 ± 0.79	
UUGAAGCAAUAUUACGACAG	0.232 ± 0.11	0.483 ± 0.091
GUUUAGCAAUAUUACGCGAC	-2.22 ± 0.68	
UUCCAGCAAUAUUACGGCCC	-2.99 ± 0.61	
